Measurements from PubChem BioAssay AID1458 (National Center for Advancing Translational Sciences (NCATS), 2008).
The whole screen tested about 210,000 compounds, of which about 5,900 (2.8%) were called active. Not shown: some 5% with an inconclusive outcome. Calls follow the shape of the dose curve; as a rule, active = well fitted activation curve with a large enough effect; inconclusive = small, poorly fitted or top-dose-only effect; inactive = no such curve, though single readings can be large or run the other way. The list shows a part of the results, in another mix than the full data. Where no call is shown, the source filed none.
Potency is read from the fitted curve at half-maximal effect.

Experiment: qHTS Assay for Enhancers of SMN2 Splice Variant Expression; also: nearly all actives have a fitted effect of over 55% in size; as to activity change, positive = activation: % of control where 0% means no effect
Details: HEK293 SMN2-luciferase splicing reporter, luminescence, 30-36 h; activity change, positive = activation: at 46.1 µM (top of the series) unless noted
In short: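 qHTS luciferase splicing reporter: luminescence rises when SMN2 exon 7 is included in transfected HEK293 cells. Compound exposure lasted 30-36 h at 37C, with 4.5 mM final sodium butyrate as control, followed by a ONE-Glo read.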
With `CCOC(=O)c1ccc(NC(=O)Cn2nc(SC)c(S(=O)(=O)c3ccc(Cl)cc3)c2N)cc1` the “activity change, positive = activation” value was inactive: -72.6%. With `O=C(C1CC(c2ccccc2O)=NO1)N1CCCCC1` (stereo not given) the Potency was active: 0.158 µM. In the case of `CCC12CN3CC(CC)(CN(C1)C31C(=O)N(C)c3ccc(C)cc31)C2=O` (stereo not given), the activity change, positive = activation is reported as 34.4%. In the case of `COc1ccc(NC(=O)CC(C(=O)O)N2CCCCC2)cc1` (stereo not given), the activity change, positive = activation is reported as 17.1%. For `Cc1nc2cc(NC(=O)NCCC3=CCCCC3)ccc2o1`, the activity change, positive = activation was -15.2%. Work on `CCOC(=O)Nc1cc(OCC)c(NC(=O)C2CC2)cc1OCC` yielded an activity change, positive = activation of 30.6%. In the case of `CCOC(=O)c1ccc(OS(=O)(=O)c2ccccc2)c(OC)c1`, the Potency is reported as active: 11.2 µM. Molecule `COc1ccccc1N1CCN(C(=O)c2cnn3cccnc23)CC1` has an activity change, positive = activation of 52.2%. With `CCN(Cc1ccncc1)S(=O)(=O)c1ccc(C(C)=O)cc1` the “activity change, positive = activation” value was inactive: -44.7%. For `Cc1c(Br)cc(C(=O)NCCCN2CCOCC2)c(C)c1C`, the activity change, positive = activation was 42.4%. With `CC1CCN(C(=O)Cn2c(=O)n(Cc3ccc4c(c3)OCO4)c(=O)c3ccccc32)CC1` the activity change, positive = activation was 33.2%. Molecule `CC1CCCC(NC(=O)CSc2nnnn2C)C1C` (stereo not given) has an activity change, positive = activation of -33.1%. `COc1ccc2[nH]c(=O)c(CN(C)C(=O)C3CCCCC3)cc2c1` gave an activity change, positive = activation of -75.2%. Molecule `O=C(Nc1nc(-c2cccs2)cs1)c1ccc(S(=O)(=O)N2CCCC2)cc1` has an activity change, positive = activation of -88%. In the case of `Cc1cc(/C=C2\SC(N)=NC2=O)c(C)n1-c1ccccc1`, the Potency is reported as active: 12.6 µM. With `Cc1cc(F)ccc1NC(=O)c1csc2c1CCC(C)C2` (stereo not given) the Potency was active: 6.31 µM. Molecule `O=C(Nc1ccc(Cl)c([N+](=O)[O-])c1)C(NCCCO)c1ccccc1` (stereo not given) has an activity change, positive = activation of 0.65%. With `O=C(O/N=C/c1ccc2c(c1)OCO2)c1ccccc1Cl` the “activity change, positive = activation” value was inactive: 2.71%. For `O=C(NCCSc1ccccc1)c1ccc(Br)cc1`, the Potency was active: 6.31 µM. For `Cc1ccc(S(=O)(=O)c2cccc(S(=O)(=O)N3CCCC3)c2)cc1S(=O)(=O)N1CCCC1`, the activity change, positive = activation was -36.9%. In the case of `O=C(CSc1nc2ccccc2[nH]1)Nc1nc(-c2ccc(Br)cc2)cs1`, the “activity change, positive = activation” value is reported as inactive: -36.4%. For `Cc1cc(SCNC(=O)c2ccccc2)nc(C(C)C)n1`, the activity change, positive = activation was 31.6%. `CC(C)c1ccc2[nH]c(O)c(N=NC(=O)c3cccc(S(=O)(=O)N4CCCCC4)c3)c2c1` showed an activity change, positive = activation of -59.5%. Work on `Cc1ccccc1S(=O)(=O)Cc1ccc(C(=O)NCCN2CCCCC2C)o1` (stereo not given) yielded an activity change, positive = activation of 19.4%. In the case of `Cc1ccccc1C(=O)O/N=C(\N)c1ccncc1`, the activity change, positive = activation is reported as 162%. Work on `Cc1[nH]c(=O)[nH]c(=O)c1S(=O)(=O)N1CCC(C(=O)N2CCN(c3cccc(C(F)(F)F)c3)CC2)CC1` yielded an activity change, positive = activation of -46.2%. Work on `C=C(CC1([C@@H](NP(=O)(c2ccccc2)c2ccccc2)[C@H]2C[C@@H]2CCCC)CC1)c1ccccc1` yielded an activity change, positive = activation of -46.5%. Work on `Cc1onc(-c2ccccc2)c1C(=O)NCC1CCCO1` (stereo not given) yielded an activity change, positive = activation of 36%. Work on `CCOC(=O)C1=C(CSc2nc(-c3ccncc3)ccc2C#N)OC(N)=C(C#N)C1c1ccc(OC)cc1` (stereo not given) yielded an activity change, positive = activation of -71.1%. For `COc1cc(Cl)cc(/C=C/c2ccc3ccccc3n2)c1OC(C)=O`, the Potency was active: 2.51 µM. `COc1ccc2nc(-c3cccc(N)c3)[nH]c2c1` gave an activity change, positive = activation of -31.8%. For `CCC(=O)Nc1cc(C(=O)OCC(=O)c2ccccc2Cl)ccc1C`, the activity change, positive = activation was 32.9%. Molecule `CCOC(=O)c1c(C)[nH]c(=S)c(C#N)c1-c1ccc(OC)cc1` has an activity change, positive = activation of 12.1%. Molecule `CC(=O)NC(=O)c1ccc(-c2ccc(Cl)cc2)o1` has an activity change, positive = activation of 51.9%. `Cc1ccc2c3c1C1(C(=O)N3C(C)(C)CC2C)C(C#N)=C(N)Oc2cc(O)ccc21` (stereo not given) showed an activity change, positive = activation of 16.5%. With `c1ccc(-n2cnc3cc(NCc4ccccn4)ccc32)cc1` the activity change, positive = activation was 30.5%. With `NC(=O)c1ccc(NC(=O)COC(=O)c2c3c(nc4ccccc24)/C(=C\c2cccs2)CCC3)cc1` the “activity change, positive = activation” value was inactive: -53.8%. With `O=C(N/C=C/c1ccco1)OCc1ccccc1` the Potency was active: 12.6 µM. For `O=C(CSc1nnc(-c2cccs2)n1-c1ccccc1)N1CCOCC1`, the activity change, positive = activation was 51.5%. With `C(=N\Nc1ncnc2ccccc12)/c1ccccc1` the Potency was active: 15.8 µM. In the case of `COc1ccc(-c2nc(-c3ccc(Br)o3)no2)cc1OC`, the Potency is reported as active: 14.1 µM. With `Cc1cc(C)c2nc(N3CCCC(C(=O)NCCCN4CCOCC4)C3)sc2c1` (stereo not given) the Potency was active: 14.1 µM. In the case of `O=S(=O)(Nc1nc2ccc(S(=O)(=O)N3CCCCC3)cc2s1)c1ccccc1`, the activity change, positive = activation is reported as 65.6%. With `O=C(NC(=S)Nc1ccc(N2CCCCC2)cc1)c1ccco1` the activity change, positive = activation was 32.4%. For `COc1ccc(-c2cc(=O)c3cc(C)ccc3[nH]2)cc1`, the Potency was active: 7.08 µM. For `CCOc1ccc2[nH]c(=O)c(CN(Cc3nnnn3Cc3ccco3)C3CCCCC3)cc2c1`, the activity change, positive = activation was 49.6%. Molecule `Cn1c(=O)c2c(nc(N3CCc4ccccc4C3)n2Cc2ccc(Br)cc2)n(C)c1=O` has an activity change, positive = activation of 33.6%. For `Cc1ccc(-c2nnc(SCC#N)n2N)cc1`, the activity change, positive = activation was 37.7%. With `CC(C)CC(=O)/C(=C\c1ccc(Cl)cc1Cl)n1cncn1` the “activity change, positive = activation” value was inactive: -111%. With `CCc1ccc(/C=C2\SC(N3CCCC3)=NC2=O)cc1` the “activity change, positive = activation” value was inactive: -38.1%. For `O=C(N=Nc1c(O)[nH]c2ccccc12)c1cccc(S(=O)(=O)N2CCCCC2)c1`, the activity change, positive = activation was 37.3%. Work on `CS(=O)(=O)N(Cc1ccccc1F)c1ccccc1` yielded an activity change, positive = activation of 18.2%. `COc1cc(-c2nc3c(c(C)nn3-c3ccccc3)c3cc(OC)c(OC)cc23)ccc1O` gave an activity change, positive = activation of -44.9%. With `COc1ccc(NC(=O)c2ccc(COCC(F)(F)C(F)F)cc2)cc1` the activity change, positive = activation was -15.3%. `CC(CN1CCNCC1)(NS(=O)(=O)c1ccccc1)c1ccccc1` (stereo not given) gave an activity change, positive = activation of 33%. `O=C(OCc1ccccc1)N1CCOCCOCCN(C(=O)OCc2ccccc2)CCOCCOCC1` showed an activity change, positive = activation of -77.9%. With `COC(=O)c1ccc2c(c1)C(=O)/C(=C/c1ccc(C)cc1)O2` the Potency was active: 11.2 µM. Molecule `C=CCn1c(C)cc(C(=O)CSc2nnc(-c3cccc(S(=O)(=O)N(CC)CC)c3)o2)c1C` has an activity change, positive = activation of -37.3%. In the case of `Cc1ccc(-c2noc(CN3CCN(Cc4ccccc4)CC3)n2)cc1`, the “activity change, positive = activation” value is reported as inactive: -89.9%. In the case of `COc1ccccc1NS(=O)(=O)c1ccc(C)c(NC(=O)c2ccc(S(=O)(=O)N3CCCCCC3)cc2)c1`, the activity change, positive = activation is reported as -41.4%. For `Cc1ccc(NC(=O)C2CCN(C(=O)c3cnn(-c4ccccc4)c3-n3cccc3)CC2)cc1C`, the “activity change, positive = activation” value was inactive: -46.1%. For `C=CCn1c(SCC(=O)Nc2sccc2C(N)=O)nc2sc(CC)cc2c1=O`, the activity change, positive = activation was -71.9%. For `CN(C)S(=O)(=O)c1ccc(Cl)c(C(=O)Nc2cccc([N+](=O)[O-])c2)c1`, the “activity change, positive = activation” value was inactive: -58.8%. With `c1ccc(-c2ccc(N3CCCC4(CCNCC4)C3)cc2)cc1` the “activity change, positive = activation” value was inactive: -55.3%. Molecule `CC(=O)N1CCc2cc(S(=O)(=O)NCCC(=O)Nc3cccc(C)c3)ccc21` has an activity change, positive = activation of 40.3%.
